The values below come from the supplement of paper PMC12819154, “High-throughput peptide-centric local stability assay extends protein–ligand identification to membrane proteins, tissues and bacteria” (Nature Structural & Molecular Biology, 2025).

Amino acid sequences for entries named in this document (tags omitted). A change or cut given only in a name is not applied to a line headed by its entry.
UniProt Q91Z53: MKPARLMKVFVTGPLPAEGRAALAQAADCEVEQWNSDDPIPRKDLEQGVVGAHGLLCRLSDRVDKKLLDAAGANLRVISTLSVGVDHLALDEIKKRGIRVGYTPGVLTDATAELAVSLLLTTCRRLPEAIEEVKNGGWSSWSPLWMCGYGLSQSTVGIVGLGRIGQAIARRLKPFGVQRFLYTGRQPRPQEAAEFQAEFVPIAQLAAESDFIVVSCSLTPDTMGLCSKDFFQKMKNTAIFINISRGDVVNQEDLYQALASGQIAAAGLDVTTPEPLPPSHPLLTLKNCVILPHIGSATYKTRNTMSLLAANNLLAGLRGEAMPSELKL
UniProt Q91VN4: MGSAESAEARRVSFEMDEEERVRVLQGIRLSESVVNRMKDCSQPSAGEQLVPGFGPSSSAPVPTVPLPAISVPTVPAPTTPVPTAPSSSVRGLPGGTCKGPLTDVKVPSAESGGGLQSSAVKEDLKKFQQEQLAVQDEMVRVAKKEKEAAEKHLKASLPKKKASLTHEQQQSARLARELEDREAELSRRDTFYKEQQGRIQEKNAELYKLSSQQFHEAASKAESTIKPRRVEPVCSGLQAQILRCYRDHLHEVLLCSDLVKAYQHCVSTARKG
UniProt Q91WT8: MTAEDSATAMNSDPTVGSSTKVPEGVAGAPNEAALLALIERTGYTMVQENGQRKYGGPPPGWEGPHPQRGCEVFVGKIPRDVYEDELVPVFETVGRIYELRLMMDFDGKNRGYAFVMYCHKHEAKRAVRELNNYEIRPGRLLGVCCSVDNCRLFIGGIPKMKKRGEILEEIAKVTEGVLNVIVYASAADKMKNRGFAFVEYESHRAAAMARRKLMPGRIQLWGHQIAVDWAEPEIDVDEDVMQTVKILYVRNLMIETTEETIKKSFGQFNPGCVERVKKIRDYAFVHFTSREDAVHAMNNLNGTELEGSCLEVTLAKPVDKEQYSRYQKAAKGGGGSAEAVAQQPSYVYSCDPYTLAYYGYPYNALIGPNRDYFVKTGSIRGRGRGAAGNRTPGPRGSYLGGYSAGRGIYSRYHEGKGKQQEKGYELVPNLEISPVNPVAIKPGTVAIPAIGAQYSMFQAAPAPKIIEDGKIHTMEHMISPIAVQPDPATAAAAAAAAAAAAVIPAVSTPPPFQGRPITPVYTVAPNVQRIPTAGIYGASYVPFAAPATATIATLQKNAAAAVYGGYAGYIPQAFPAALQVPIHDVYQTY
UniProt Q91Z40: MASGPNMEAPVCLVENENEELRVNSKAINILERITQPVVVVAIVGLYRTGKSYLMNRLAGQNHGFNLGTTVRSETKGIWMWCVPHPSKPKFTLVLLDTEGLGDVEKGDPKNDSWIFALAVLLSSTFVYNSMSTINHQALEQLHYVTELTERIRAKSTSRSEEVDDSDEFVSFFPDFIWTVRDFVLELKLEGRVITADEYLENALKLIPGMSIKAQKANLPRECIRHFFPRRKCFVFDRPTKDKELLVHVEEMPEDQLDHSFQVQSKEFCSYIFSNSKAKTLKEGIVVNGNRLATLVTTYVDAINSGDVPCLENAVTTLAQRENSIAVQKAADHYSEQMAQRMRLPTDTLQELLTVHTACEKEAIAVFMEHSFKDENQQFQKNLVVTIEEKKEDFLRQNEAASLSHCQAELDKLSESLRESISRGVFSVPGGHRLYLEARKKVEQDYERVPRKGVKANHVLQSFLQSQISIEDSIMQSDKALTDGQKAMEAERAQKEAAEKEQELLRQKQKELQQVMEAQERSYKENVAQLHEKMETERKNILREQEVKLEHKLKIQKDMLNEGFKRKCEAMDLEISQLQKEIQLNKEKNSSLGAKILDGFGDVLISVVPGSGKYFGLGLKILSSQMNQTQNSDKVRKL
UniProt Q91Y74: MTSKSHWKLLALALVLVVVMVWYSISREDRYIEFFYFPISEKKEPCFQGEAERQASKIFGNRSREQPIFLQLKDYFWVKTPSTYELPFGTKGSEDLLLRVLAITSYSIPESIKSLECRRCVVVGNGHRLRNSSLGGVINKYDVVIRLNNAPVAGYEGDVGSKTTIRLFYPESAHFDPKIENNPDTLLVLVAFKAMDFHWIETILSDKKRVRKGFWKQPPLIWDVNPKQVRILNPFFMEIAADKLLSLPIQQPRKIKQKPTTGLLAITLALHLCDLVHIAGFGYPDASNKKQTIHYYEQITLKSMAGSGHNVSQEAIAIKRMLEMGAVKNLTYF
UniProt Q91V81: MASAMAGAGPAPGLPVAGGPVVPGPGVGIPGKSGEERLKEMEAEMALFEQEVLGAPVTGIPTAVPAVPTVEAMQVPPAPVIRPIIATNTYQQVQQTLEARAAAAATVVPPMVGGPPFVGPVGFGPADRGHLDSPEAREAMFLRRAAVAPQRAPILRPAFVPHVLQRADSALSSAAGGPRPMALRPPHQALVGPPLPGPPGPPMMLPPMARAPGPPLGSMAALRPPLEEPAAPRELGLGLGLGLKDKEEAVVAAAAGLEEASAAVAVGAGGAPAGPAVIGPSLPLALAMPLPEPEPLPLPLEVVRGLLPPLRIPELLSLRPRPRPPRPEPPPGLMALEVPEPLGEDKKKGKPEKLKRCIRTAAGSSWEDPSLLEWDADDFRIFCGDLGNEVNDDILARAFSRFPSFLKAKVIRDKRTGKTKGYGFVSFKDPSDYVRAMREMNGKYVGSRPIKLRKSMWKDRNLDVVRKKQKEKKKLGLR
UniProt Q91V17: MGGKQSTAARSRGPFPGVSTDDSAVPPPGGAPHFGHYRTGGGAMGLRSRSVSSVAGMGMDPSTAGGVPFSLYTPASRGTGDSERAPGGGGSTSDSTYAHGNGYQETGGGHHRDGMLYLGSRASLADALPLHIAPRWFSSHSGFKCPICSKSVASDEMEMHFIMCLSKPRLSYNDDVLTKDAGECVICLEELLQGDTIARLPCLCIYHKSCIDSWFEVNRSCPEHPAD
UniProt Q91XV3: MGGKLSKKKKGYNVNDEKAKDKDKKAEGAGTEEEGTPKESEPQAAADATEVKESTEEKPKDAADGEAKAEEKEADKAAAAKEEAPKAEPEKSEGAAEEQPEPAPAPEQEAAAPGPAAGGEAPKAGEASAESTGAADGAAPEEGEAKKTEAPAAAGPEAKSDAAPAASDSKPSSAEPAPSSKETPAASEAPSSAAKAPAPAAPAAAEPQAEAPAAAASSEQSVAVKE
UniProt Q91ZR1: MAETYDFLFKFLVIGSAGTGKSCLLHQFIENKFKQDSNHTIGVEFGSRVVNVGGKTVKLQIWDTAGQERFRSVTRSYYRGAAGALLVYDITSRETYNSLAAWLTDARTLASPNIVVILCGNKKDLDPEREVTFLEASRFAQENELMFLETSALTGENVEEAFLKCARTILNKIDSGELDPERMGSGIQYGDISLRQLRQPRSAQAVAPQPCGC
UniProt Q91W45: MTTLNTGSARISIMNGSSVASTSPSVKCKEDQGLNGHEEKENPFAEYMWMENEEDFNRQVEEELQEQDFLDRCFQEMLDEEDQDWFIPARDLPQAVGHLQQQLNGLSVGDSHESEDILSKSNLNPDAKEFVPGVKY
UniProt Q91YI0, whole entry: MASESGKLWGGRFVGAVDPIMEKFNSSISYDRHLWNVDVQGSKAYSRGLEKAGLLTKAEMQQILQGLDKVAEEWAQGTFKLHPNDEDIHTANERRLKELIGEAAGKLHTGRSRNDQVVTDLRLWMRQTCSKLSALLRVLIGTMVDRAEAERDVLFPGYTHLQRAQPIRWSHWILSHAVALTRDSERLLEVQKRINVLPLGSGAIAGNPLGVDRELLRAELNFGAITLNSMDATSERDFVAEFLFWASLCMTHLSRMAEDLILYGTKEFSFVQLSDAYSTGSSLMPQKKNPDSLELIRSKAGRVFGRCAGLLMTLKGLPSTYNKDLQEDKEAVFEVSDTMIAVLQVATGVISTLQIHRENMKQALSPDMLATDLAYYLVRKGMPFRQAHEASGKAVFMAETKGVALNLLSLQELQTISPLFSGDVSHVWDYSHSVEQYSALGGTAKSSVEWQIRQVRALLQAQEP
UniProt Q8VHL0: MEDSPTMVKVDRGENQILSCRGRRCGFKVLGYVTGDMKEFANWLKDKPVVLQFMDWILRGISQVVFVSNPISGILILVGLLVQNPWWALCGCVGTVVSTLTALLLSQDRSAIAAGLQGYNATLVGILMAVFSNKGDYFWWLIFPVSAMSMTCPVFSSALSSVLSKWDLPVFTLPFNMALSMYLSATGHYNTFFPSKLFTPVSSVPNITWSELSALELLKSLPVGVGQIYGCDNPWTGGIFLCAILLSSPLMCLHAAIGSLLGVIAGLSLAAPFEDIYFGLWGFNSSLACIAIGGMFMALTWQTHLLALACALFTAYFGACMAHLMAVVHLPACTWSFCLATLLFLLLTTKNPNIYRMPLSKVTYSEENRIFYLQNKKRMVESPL
UniProt Q91W50: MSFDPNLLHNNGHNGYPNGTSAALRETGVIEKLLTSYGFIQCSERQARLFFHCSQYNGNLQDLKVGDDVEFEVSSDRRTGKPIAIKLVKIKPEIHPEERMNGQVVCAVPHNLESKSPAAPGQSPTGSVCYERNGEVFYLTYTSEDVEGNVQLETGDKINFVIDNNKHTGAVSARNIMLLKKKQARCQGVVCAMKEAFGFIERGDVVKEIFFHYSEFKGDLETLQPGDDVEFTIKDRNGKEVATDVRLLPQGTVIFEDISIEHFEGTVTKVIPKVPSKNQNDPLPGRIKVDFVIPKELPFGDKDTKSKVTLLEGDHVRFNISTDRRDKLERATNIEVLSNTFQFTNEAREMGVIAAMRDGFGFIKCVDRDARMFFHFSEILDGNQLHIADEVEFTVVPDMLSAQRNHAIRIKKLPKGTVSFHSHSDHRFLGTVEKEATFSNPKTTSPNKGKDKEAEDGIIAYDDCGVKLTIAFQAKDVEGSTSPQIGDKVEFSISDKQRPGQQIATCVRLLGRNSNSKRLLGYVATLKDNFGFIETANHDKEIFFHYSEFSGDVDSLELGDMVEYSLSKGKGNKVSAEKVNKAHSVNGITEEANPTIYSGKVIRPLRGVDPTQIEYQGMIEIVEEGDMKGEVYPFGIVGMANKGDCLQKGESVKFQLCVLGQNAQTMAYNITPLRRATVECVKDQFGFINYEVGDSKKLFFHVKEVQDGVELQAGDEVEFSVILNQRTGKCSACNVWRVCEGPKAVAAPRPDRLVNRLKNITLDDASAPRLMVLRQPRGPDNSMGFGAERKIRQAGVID
UniProt Q91YY2: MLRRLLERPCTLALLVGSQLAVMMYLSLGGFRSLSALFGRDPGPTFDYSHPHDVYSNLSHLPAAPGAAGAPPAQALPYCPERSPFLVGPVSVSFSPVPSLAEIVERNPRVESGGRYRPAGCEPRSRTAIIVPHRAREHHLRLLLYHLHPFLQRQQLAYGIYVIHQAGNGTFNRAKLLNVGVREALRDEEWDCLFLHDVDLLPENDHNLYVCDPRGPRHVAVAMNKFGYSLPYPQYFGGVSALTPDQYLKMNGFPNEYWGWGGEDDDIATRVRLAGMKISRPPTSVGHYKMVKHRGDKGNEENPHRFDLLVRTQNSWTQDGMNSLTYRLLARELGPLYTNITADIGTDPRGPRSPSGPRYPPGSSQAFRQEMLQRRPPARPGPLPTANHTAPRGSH
UniProt Q8VHE0: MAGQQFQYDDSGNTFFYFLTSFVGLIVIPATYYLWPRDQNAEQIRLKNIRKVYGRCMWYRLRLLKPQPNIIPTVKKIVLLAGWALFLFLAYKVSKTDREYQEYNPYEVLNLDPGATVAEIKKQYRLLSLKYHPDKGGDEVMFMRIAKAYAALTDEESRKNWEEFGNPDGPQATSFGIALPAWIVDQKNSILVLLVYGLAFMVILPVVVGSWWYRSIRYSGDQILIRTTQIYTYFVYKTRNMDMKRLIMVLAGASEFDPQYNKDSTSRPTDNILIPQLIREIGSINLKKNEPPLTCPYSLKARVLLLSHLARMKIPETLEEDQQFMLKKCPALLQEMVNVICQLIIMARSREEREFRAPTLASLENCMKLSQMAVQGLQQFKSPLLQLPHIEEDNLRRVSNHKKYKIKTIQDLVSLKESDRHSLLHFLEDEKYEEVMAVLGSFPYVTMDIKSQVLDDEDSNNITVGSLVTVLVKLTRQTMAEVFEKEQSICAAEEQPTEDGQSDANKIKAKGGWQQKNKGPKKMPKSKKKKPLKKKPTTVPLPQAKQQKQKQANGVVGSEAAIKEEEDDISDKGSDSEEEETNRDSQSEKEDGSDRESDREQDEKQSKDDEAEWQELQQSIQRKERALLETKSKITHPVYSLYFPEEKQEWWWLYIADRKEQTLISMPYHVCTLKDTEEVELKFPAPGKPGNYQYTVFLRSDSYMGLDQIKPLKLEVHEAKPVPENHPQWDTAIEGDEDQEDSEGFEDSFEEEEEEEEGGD
UniProt Q91XC8: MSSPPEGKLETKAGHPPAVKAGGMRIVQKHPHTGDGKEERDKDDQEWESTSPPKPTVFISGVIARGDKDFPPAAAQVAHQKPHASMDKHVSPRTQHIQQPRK

The other results are listed elsewhere or left out. Small differences around the control level are noise.

Compound in the assay: CN[C@@H]1C[C@H]2O[C@@](C)([C@@H]1OC)n1c3ccccc3c3c4c(c5c6ccccc6n2c5c31)C(=O)NC4 [staurosporine]
Description: log2 fold change of tryptic peptide abundance, ligand vs vehicle (limited proteolysis) (log2 ratio); higher = more trypsin-susceptible (destabilized). To be noted: ligand concentration: 20 uM; sample: mouse liver crude lysate; replicate design: treated separately.
Turning to “UniProt Q91Z53 (peptide sequence: KDLEQGVVGAHGLLCR, peptide start residue: 43)”, the log2 fold change is -0.15.
For “UniProt Q91VN4 (peptide sequence: ASLTHEQQQSAR, peptide start residue: 163)” the value was -0.139.
For “UniProt Q91WT8 (peptide sequence: DYAFVHFTSR, peptide start residue: 282)” the value was -0.56; for “UniProt Q91Z40 (peptide sequence: DFVLELK, peptide start residue: 182)”, 0.143.
As for “UniProt Q91Y74 (peptide sequence: EQPIFLQLK, peptide start residue: 65)”, the log2 fold change was -0.137.
In the case of “UniProt Q91V83 (peptide sequence: VHVILNSVAHVQR, peptide start residue: 415)”, the log2 fold change turned out to be 1.28.
As for “UniProt Q91ZS8 (peptide sequence: NPVMILNELRPGLK, peptide start residue: 235)”, the log2 fold change was found to be 0.215.
For “UniProt Q91WV7 (peptide sequence: EVLFQFSGQAR, peptide start residue: 70)” the value was 0.306; for “UniProt Q91V81 (peptide sequence: GHLDSPEAR, peptide start residue: 129)”, -0.133; for “UniProt Q91YP1 (peptide sequence: AKHTHETQAIPESSTK, peptide start residue: 265)”, 0.251.
To “UniProt Q8VHR5 (peptide sequence: RKDLANLEVPHELPTK, peptide start residue: 51)” belongs -1.15; to “UniProt Q91VE0 (peptide sequence: KIANDVFK, peptide start residue: 472)”, 0.453.
Consider “UniProt Q91V17 (peptide sequence: ASLADALPLHIAPR, peptide start residue: 122)”, for which the log2 fold change is -0.122.
On to “UniProt Q91XV3 (peptide sequence: EADKAAAAKEEAPK, peptide start residue: 73)”, for which the log2 fold change was -0.797.
For “UniProt Q91ZR1 (peptide sequence: SCLLHQFIENK, peptide start residue: 22)” the value was -0.142; for “UniProt Q91W45 (peptide sequence: CKEDQGLNGHEEK, peptide start residue: 28)”, -0.215.
“UniProt Q91WM1 (peptide sequence: YSWSVTDKEGAGSSALK, peptide start residue: 340)”: the log2 fold change was -0.145.
For the target “UniProt Q91YU3 (peptide sequence: FESEKLQIEKER, peptide start residue: 317)”, the log2 fold change is 0.334.
For the target “UniProt Q91YI0 (peptide sequence: WSHWILSHAVALTR, peptide start residue: 169)”, the log2 fold change was -0.389.
For “UniProt Q8VHL0 (peptide sequence: VDRGENQILSCR, peptide start residue: 10)” the value was -0.226.
To “UniProt Q91W50 (peptide sequence: EIFFHYSEFK, peptide start residue: 208)” belongs -0.878; to “UniProt Q8VI59 (peptide sequence: APLAGSK, peptide start residue: 516)”, -0.421.
To “UniProt Q91YY2 (peptide sequence: GNEENPHRFDLLVR, peptide start residue: 298)” belongs -0.299; to “UniProt Q8VHE0 (peptide sequence: AYAALTDEESRK, peptide start residue: 148)”, -0.786; to “UniProt Q91XC8 (peptide sequence: IVQKHPHTGDGKEER, peptide start residue: 26)”, -0.0745.
